For two molecules, binding results are on record in article PMC11879677.

These are yes or no findings as the source states them, for the method shown. Binding seen in cells or lysates may run through a third protein. Some entries that bind do so weakly or less than the wild type.

The target of assay [1] is T1, Modulo (Mod) (Drosophila (endogenous in Oregon-R ovaries)) (UniProt P13469).
T1 sequence: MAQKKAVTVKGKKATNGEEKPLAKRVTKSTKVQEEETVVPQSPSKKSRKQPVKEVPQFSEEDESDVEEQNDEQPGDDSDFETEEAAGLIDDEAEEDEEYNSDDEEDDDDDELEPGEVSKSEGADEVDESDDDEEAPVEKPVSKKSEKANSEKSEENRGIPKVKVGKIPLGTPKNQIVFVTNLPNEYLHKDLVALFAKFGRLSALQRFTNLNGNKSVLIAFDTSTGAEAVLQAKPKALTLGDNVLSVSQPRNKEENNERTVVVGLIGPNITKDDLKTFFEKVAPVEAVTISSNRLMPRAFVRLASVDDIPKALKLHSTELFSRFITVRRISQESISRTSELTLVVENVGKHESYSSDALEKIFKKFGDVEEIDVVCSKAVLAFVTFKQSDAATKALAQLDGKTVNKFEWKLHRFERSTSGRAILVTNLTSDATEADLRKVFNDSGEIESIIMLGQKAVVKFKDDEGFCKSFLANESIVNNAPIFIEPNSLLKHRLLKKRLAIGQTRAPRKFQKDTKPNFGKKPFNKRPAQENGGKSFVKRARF
Put plainly: co-IP; Oregon-R ovary nuclear lysate (NLB: 50 mM Tris-HCl pH 7.5, 20 mM NaCl, 1 mM MgCl2, 1% NP-40; sonicated, Benzonase-treated); anti-Piwi or anti-Mod antibody against isotype IgG control, overnight at 4 °C, Protein A/G magnetic beads; immunoblot. In general terms: In western blotting, separated proteins are transferred to a membrane and probed.

The target in assay [2] is T2, P-element induced wimpy testis (Piwi) (Drosophila (endogenous in Oregon-R ovaries)) (UniProt Q9VKM1).
T2 sequence: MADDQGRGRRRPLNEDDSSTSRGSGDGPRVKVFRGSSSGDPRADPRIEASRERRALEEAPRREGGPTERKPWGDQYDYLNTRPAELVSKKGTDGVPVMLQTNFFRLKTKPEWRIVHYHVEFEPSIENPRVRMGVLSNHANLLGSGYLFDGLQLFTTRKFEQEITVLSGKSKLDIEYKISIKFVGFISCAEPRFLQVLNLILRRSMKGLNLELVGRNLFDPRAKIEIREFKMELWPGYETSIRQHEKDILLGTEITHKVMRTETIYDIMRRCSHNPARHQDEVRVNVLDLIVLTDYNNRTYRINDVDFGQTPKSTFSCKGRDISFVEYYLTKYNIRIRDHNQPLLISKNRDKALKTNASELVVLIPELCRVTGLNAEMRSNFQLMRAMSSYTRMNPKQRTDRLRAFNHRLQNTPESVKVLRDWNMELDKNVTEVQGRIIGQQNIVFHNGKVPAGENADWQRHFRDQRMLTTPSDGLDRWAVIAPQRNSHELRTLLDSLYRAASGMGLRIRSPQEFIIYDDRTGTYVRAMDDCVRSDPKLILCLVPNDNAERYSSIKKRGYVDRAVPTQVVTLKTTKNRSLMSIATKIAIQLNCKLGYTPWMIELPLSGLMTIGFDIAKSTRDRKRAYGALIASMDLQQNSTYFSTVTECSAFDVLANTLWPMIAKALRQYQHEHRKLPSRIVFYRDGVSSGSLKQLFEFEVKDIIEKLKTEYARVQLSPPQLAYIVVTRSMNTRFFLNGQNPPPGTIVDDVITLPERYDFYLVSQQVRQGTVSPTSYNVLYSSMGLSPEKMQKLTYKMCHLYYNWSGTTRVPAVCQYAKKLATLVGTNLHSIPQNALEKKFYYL
Described as above.

B1: P-element induced wimpy testis (Piwi) (protein, UniProt Q9VKM1 1-843)
chain: T2 sequence
As for B1, the binding result in assay [1] is reported as “binds”.

B2: Modulo (Mod) (protein, UniProt P13469 1-542)
chain: T1 sequence
Take B2: the binding result in assay [2] is “binds”.
